# These are yes or no findings as the source states them, for the method shown. In cells and extracts the contact can be indirect. These calls come from enrichment with a bait or labelling near it, and not all partners need be listed.
# Chains of the proteins cited; added tags and fusions are not shown.
# UniProt Q6R327: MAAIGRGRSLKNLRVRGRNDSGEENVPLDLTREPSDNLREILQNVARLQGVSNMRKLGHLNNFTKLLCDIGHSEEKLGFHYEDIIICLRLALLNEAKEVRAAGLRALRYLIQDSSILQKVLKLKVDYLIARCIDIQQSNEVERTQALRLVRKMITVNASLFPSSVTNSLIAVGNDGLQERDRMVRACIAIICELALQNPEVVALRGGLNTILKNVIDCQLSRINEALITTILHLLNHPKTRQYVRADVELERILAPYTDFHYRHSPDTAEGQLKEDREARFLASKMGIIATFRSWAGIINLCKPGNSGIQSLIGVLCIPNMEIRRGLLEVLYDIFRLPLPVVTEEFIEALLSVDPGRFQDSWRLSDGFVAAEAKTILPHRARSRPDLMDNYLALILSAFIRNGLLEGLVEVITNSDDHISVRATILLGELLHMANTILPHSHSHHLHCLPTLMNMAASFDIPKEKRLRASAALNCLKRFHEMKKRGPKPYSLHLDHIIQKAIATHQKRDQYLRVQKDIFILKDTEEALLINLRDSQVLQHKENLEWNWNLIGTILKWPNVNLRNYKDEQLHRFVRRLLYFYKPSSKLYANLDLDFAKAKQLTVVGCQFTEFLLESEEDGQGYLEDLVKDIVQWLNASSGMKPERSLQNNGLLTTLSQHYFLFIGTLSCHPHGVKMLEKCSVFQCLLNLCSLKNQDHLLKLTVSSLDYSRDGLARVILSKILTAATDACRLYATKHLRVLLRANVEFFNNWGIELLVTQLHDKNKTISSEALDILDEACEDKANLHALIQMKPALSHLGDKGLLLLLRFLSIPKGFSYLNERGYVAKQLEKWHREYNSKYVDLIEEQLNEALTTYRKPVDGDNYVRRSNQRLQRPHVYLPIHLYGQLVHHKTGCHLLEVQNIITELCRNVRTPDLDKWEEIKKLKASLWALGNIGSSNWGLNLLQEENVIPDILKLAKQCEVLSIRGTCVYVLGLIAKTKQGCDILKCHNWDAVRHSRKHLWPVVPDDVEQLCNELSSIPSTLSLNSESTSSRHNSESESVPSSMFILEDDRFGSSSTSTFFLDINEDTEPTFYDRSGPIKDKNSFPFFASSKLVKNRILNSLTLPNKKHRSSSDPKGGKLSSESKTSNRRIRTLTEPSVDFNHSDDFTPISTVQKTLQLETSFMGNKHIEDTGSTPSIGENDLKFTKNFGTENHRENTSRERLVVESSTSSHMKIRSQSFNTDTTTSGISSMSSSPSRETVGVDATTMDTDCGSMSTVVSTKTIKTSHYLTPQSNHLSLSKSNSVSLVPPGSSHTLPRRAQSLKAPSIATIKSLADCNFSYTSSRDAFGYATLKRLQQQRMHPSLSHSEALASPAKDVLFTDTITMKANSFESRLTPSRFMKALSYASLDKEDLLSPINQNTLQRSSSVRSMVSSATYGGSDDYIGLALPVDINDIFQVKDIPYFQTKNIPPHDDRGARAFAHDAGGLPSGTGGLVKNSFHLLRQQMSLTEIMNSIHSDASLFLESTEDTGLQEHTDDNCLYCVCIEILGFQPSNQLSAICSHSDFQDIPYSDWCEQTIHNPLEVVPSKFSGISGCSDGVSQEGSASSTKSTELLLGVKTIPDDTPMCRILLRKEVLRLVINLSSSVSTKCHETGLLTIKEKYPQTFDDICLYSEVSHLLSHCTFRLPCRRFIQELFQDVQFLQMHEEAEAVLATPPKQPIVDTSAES
# UniProt P21333: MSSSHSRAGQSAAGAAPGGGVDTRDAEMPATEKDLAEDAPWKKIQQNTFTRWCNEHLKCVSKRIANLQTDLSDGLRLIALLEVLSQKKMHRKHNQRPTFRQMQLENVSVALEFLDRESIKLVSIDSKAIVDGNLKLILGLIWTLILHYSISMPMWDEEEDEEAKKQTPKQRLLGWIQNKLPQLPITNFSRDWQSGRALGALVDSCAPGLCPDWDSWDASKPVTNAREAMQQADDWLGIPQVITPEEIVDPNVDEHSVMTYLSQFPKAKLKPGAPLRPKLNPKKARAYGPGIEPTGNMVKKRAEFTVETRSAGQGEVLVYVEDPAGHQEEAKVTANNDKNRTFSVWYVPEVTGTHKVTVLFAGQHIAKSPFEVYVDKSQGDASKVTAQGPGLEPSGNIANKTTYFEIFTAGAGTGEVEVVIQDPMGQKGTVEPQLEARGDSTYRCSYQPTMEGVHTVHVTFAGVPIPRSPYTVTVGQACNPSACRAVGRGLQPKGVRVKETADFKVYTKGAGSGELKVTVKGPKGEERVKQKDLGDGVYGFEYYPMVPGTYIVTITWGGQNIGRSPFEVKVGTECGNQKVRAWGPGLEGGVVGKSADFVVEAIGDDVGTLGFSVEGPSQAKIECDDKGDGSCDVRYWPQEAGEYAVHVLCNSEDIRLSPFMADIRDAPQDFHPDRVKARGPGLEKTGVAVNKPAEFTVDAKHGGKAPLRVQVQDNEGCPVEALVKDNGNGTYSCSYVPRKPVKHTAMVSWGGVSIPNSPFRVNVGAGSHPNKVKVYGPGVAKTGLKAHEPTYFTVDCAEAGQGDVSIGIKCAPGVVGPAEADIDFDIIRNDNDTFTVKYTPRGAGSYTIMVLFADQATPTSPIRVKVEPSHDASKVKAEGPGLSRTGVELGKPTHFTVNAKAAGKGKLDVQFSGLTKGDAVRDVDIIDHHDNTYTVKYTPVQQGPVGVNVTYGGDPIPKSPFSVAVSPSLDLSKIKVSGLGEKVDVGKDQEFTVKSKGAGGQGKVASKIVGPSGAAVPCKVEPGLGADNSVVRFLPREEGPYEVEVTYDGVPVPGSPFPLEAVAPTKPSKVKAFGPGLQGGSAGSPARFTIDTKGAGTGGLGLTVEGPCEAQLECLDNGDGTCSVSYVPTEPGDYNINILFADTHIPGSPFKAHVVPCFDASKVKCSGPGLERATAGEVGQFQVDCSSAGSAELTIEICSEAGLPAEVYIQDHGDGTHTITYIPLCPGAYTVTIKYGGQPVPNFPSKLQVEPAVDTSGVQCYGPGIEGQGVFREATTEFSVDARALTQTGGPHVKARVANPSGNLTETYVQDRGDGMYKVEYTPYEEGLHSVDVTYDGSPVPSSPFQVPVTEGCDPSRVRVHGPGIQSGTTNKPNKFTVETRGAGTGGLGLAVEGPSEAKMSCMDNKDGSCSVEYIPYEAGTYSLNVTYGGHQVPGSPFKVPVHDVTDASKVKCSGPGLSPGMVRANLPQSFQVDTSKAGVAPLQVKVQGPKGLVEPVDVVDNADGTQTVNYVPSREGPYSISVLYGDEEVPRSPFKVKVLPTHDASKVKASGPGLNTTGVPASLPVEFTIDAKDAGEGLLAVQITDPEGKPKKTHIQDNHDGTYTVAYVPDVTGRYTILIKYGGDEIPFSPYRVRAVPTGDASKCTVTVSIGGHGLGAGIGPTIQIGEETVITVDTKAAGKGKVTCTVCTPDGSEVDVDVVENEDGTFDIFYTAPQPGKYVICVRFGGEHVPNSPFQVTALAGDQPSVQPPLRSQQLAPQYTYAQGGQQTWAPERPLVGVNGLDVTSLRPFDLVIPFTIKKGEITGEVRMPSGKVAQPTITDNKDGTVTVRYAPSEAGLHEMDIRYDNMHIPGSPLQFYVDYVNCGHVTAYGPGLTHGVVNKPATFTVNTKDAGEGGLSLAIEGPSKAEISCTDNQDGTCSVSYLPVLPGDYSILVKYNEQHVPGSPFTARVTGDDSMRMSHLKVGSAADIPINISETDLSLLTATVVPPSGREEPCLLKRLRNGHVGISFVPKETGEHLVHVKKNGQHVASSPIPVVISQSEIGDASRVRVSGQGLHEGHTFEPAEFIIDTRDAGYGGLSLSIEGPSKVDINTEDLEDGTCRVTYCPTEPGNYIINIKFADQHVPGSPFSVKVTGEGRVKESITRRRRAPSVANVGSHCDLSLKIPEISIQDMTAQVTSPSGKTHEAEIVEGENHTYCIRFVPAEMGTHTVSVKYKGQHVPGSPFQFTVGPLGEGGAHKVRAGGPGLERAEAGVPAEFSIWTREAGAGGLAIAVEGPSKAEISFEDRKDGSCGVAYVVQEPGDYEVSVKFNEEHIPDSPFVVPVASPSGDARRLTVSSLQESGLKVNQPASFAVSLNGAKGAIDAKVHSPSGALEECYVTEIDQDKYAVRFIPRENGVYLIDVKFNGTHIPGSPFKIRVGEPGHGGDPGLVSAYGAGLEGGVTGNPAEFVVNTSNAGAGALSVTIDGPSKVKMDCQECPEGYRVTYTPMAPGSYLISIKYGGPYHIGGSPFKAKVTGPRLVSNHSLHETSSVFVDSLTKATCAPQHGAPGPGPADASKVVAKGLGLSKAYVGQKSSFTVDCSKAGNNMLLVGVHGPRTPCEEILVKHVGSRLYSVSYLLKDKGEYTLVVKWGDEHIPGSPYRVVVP
# UniProt P35579: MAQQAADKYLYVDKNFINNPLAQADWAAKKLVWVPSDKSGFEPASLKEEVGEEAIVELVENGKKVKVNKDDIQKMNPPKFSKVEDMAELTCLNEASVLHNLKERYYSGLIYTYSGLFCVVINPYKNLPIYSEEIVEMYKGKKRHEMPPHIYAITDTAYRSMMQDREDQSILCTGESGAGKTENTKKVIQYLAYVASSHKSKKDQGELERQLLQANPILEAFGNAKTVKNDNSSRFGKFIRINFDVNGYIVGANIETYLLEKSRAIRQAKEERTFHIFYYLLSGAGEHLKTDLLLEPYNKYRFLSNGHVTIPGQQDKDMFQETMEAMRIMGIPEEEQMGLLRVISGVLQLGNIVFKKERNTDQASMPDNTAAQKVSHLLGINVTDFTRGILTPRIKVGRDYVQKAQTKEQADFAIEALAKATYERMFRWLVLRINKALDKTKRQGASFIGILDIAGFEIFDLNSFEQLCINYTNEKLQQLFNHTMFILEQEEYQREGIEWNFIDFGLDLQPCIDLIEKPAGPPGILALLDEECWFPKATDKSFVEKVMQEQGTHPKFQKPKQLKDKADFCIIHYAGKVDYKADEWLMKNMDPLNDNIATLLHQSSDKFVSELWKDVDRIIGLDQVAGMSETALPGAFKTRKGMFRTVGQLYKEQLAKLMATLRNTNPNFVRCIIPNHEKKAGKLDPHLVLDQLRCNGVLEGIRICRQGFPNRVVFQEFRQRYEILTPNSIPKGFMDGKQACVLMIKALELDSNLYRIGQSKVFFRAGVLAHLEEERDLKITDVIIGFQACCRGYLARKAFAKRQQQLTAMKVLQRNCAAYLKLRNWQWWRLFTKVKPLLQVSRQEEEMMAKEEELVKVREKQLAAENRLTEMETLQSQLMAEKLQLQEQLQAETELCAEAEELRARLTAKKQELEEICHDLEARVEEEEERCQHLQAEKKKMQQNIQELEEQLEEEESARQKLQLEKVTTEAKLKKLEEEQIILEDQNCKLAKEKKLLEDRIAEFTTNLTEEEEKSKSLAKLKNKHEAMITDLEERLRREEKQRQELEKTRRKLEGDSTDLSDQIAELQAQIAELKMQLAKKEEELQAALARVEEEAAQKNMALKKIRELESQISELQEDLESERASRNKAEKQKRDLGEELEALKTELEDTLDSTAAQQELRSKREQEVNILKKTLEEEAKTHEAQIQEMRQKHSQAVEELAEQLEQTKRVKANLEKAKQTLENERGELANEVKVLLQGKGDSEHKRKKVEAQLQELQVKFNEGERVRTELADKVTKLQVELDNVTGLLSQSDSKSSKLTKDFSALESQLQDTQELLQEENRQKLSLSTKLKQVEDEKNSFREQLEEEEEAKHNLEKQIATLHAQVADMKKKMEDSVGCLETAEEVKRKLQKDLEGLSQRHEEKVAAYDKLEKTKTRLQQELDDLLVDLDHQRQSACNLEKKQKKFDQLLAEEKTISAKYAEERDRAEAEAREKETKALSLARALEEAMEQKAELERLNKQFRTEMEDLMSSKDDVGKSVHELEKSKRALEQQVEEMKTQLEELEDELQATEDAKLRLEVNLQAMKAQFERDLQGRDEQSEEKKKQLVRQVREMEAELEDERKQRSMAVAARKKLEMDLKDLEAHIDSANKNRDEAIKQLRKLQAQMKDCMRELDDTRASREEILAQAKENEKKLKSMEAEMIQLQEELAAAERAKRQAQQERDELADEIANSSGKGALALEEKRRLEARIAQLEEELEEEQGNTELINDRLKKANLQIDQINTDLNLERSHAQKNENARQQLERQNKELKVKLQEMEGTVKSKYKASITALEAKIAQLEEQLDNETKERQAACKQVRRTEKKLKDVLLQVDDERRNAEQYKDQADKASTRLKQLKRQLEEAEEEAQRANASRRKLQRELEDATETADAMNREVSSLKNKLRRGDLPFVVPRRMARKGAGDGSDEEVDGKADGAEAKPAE
# Target: FLAG-RICTOR (stably expressed in U87vIII cells) (UniProt Q6R327)
# Experiment: affinity purification with mass spectrometry; FLAG-RICTOR captured from U87vIII lysate (2 % CHAPS, 50 mM HEPES pH 7.4, 150 mM NaCl) on anti-FLAG M2 magnetic beads, washed with ATP buffer and 300 mM NaCl buffer, eluted with 3X FLAG peptide; bands of the SDS-PAGE gel identified by LC-MS/MS
row,binding,Substance
1,binds,"Filamin A (endogenous, U87vIII cells) (from UniProt P21333 1-2647)"
2,binds,"Myosin-9 (endogenous, U87vIII cells) (from UniProt P35579 1-1960)"

# From paper PMC4489161
